Results are given in words; binding and its absence hold for the method and conditions named. Some entries that bind do so weakly or less than the wild type.
B1: anti-IL-23p19 Fab/scFv cluster 264 (Fab, V domains shown)
VH: EVQLLESGGGLVQPGGSLRLSCAASGFTFSDYKMMWVRQAPGKGLEWVSSIGSSGGPTWYADSVKGRFTISRDNSKNTLYLQMNSLRAEDTAVYYCARLAYSSGWYDDYWGQGTLVTVSS
VL: DIQMTQSPATLSLSPGERATLSCRASQSISSYLAWYQQKPGQAPRLLIYHASNRATGIPARFSGSGSGTDFTLTITSLEPEDFAVYYCQQRSNSPPWTFGQGTKVEMK
B2: anti-IL-23p19 Fab/scFv cluster 265 (Fab, V domains shown)
VH: EVQLLESGGGLVQPGGSLRLSCAASGFTFSAYKMSWVRQAPGKGLEWVSSISPSGGGTHYADSVKGRFTISRDNSKNTLYLQMNSLRAEDTALYYCAKDMGGIAARQAGGFGYWGQGTLVTVSS
VL: DIQMTQSPATLSLSPGERATLSCRASQSIGRYLAWYQQKPGQAPRLLIYDASNRATGIPARFSGSGSGTDFTLTISSLEPEDFAVYYCQQRSKWPPTFGQGTKVEIK
B3: anti-IL-23p19 Fab/scFv cluster 266 (Fab, V domains shown)
VH: EVQLLESGGGLVQPGGSLRLSCAASGFTFSVYTMYWVRQAPGKGLEWVSWISPSGGSTVYADSVKGRFTISRDNSKNTLYLQMNSLRAEDTAVYYCAASRTTPGGFDVWGQGTMVTVSS
VL: DIQMTQSPVTLSLSPGERATLSCRASQSYISYLAWYQQKSGQAPRLLIYDTSNRATGIPARFSGSGSGSDFTLTINSLEPEDVAVYYCQQRSNWPPEFTFGQGTRLEIK
B4: anti-IL-23p19 Fab/scFv cluster 267 (Fab, V domains shown)
VH: EVQLLESGGGLVQPGGSLRLSCAASGFTFSEYAMEWVRQAPGKGLEWVSYIYSSGGFTIYADSVKGRFTISRDNSKNTLYLQMNSLRAEDTAVYYCARDGSDAFDIWGQGTMVTVSS
VL: DIQMTQSPSSVSASVGDRVTITCRASQDINIWLAWYQLKPGEAPKLLIHSASTLQSGVPSRFSGSGSGTDFIFTISSLQPEDYATYHCQQINTFPPTFGGGTKVDIK
B5: anti-IL-23p19 Fab/scFv cluster 273 (Fab, V domains shown)
VH: EVQLLESGGGLVQPGGSLRLSCAASGFTFSRYVMGWVRQAPGKGLEWVSYISPSGGWTWYADFVKGRFTISRDNSKNTLYLQMNSLRAEDTAVYYCARVHDAFDIWGQGTMVTVSS
VL: NIQMTQSPSSVSASVGDRVTITCRASQGVSTWLAWYQQKPGKAPKLLIYAASSLQSGVPSRFSGSGSGTDFTLTISSLQPEDFATYYCLQAYNFPLTFGGGTKVEIE
B6: anti-IL-23p19 Fab/scFv cluster 276 (Fab, V domains shown)
VH: EVQLLESGGGLVQPGGSLRLSCAASGFTFSRYVMGWVRQAPGKGLEWVSYISPSGGWTWYADFVKGRFTISRDNSKNTLYLQMNSLRAEDTAVYYCARVHDAFDIWGQGTMVTVSS
VL: NIQMTQSPSSVSASVGDRVTITCRASQGVSTWLAWYQQKPGKAPKLLIYAASSLQSGVPSRFSGSGSGTDFTLTISSLQPEDFATYYCLQAYNFPLTFGGGTKVEIK
B7: anti-IL-23p19 Fab/scFv cluster 277 (Fab, V domains shown)
VH: EVQLLESGGGLVQPGGSLRLSCAASGFTFSHYVMGWVRQAPGKGLEWVSYISPSGGWTWYADFVKGRFTISRDNSKNTLYLQMNSLRAEDTAVYYCARVHDAFDIWGQGTMVTVSR
VL: NIQMTQSPSSVSASVGDRVTITCRASQGVSTWLAWYQQKPGKAPKLLIYAASSLQSGVPSRFSGSGSGTDFTLTISSLQPEDFATYYCLQAYNFPLTFGGGTKVEIK
B8: anti-IL-23p19 Fab/scFv cluster 279 (Fab, V domains shown)
VH: EVQLLESGGGLVQPGGSLRLSCAASGFTFSAYGMDWVRQAPGKGLEWVSSISPSGGQTKYADSVKGRFTISRDNSKNTLYLQMNSLRAEDTAVYYCAKDLGGGYYYYYGMDVWGQGTLVTVSS
VL: QYELTQPASVSGSPGQSITISCTGTSSDVGGYNYVSWYQQHPGKAPKLMIYEVSNRPSGVSNRFSGSKSGNTASLTISGLQAEDEADYYCSSYTSSSTLFYVFGTGTKVTVR
B9: anti-IL-23p19 Fab/scFv cluster 283 (Fab, V domains shown)
VH: EVQLLESGGGLVQPGGSLRLSCAASGFTFSAYGMDWVRQAPGKGLEWVSSISPSGGQTKYADSVKGRFTISRDNSKNTLYLQMNSLRAEDTAVYYCAKDLGGGYYYYYGMDVWGQGTLVTVSS
VL: QYELTQPAPVSGSPGQSITISCTGTSSDVGGYNYVSWYQQHPGKAPKLMIYEVSNRPSGVSNRFSGSKSGNTASLTISGLQAEDEADYYCSSYTSSSTLFYVFGTGTKVTVL
B10: anti-IL-23p19 Fab/scFv cluster 284 (Fab, V domains shown)
VH: EVQLLESGGGLVQPGGSLRLSCAASGFTFSAYGMDWVRQAPGRGLEWVSSISPSGGQTKYADSVKGRFTISRDNSKNTLYLQMNSLRAEDTAVYYCAKDLGGGYYYYYGMDVWGQGTLVTVSS
VL: QYELTQPASVSGSPGQSITISCTGTSSDVGGYNYVSWYQQHPGKAPKLMIYEVSNRPSGVSNRFSGSKSGNTASLTISGLQAEDEADYYCSSYTSSSTLFYVFGTGTKVTVL
B11: anti-IL-23p19 Fab/scFv cluster 288 (Fab, V domains shown)
VH: EVQLLESGGGLVQPGGSLRLSCAASGFTFSAYGMDWVRQAPGKGLEWVSSISPSGGQTKYADSVKGRFTISRDNSKNTLYLQMKSLRAEDTAVYYCAKDLGGGYYYYYGMDVWGQGTLVTVSS
VL: QYELTQPASVSGSPGQSITISCTGTSSDVGGYNYVSWYQQHPGKAPKLMIYEVSNRPSGVSNRFSGSKSGNTASLTISGLQAEDEADYYCSSYTSSSTLFYVFGTGTKVTVL
B12: anti-IL-23p19 Fab/scFv cluster 304 (Fab, V domains shown)
VH: EVQLLESGGGLVQPGGSLRLSCAASGFTFSAYGMDWVRQAPGKGLEWVSSISPSGGQTKYADSVKGRFTISRDNSKNTLYLQMNSLRAEDTAVYYCAKDLGGGYYYYYGMDVWGQGTTVTVSS
VL: QYELTQPASVSGSPGQSITISCTGTSSDVGGYNYVSWYQQHPGKAPKLMIYEVSNRPSGVSNRFSGSKSGNTASLTISGLQAEDEADYYCSSYTSSSTLFYVFGTGTKVTVP
B13: anti-IL-23p19 Fab/scFv cluster 305 (VH SEQ ID NO: 267) (Fab, V domains shown)
VH: EVQLLESGGGLVQPGGSLRLSCAASGFTFSAYGMDWVRQAPGKGLEWVSSISPSGGRTKYADSVKGRFTISRDNSKNTLYLQMNSLRAEDTAVYYCAKDLGGGYYYYYGMDVWGQGTLVTVSS
VL: QYELTQPASVSGSPGQSITISCTGTSSDVGGYNYVSWYQQHPGKAPKLMIYEVSNRPSGVSNRFSGSKSGNTASLTISGLQAEDEADYYCSSYTSSSTLFYVFGTGTKVTVL
B14: anti-IL-23p19 Fab/scFv cluster 26 (Fab, V domains shown)
VH: EVQLLESGGGLVQPGGSLRLSCAASGFTFSRYGMHWVRQAPGKGLEWVSYIVSSGGYTEYADSVKGRFTISRDNSKNTLYLQMNSLRAEDTAVYYCTTGIAVARYWGQGTLVTVSS
VL: DIQMTQSPGTLSLSPGERATLSCRASQSVSSRYLAWYQQKPGQAPRLLIYGASSRATGIPDRFSGSGSGTDFTLTISRLEAEDFAVYYCQQYSTSPYTFGQGTKLEIK
B15: anti-IL-23p19 Fab/scFv cluster 27 (Fab, V domains shown)
VH: EVQLLESGGGLVQPGGSLRLSCAASGFTFSAYSMTWVRQAPGKGLEWVSGIYSSGGFTWYADSVKGRFTISRDNSKNTLYLQMNSLRAEDTAVYYCARVGLWAFDIWGQGTMVTVSS
VL: DIQMTQSPSSLSASVGDRVTITCRASQSISGYLHWYQQKPGKAPNLLIFATSNLHSGVPSRFSGSRSGTDFTLTISSLQPEDFATYFCQQSFSTPPTFGHGTRLEIK
B16: anti-IL-23p19 Fab/scFv cluster 28 (Fab, V domains shown)
VH: EVQLLESGGGLVQPGGSLRLSCAASGFTFSLYKMGWVRQAPGKGLEWVSYIWSSGGWTRYADSVKGRFTISRDNSKNTLYLQMNSLRAEDTAVYYCARAGGYNSPLSYWGQGTLVTVSS
VL: DIQMTQSPSSLPASVGDRVAITCRASQSISSSYLNWYQHKPGKAPKLLIYAASNLNSGVPSRFSGSGSGTDFTLTISSLQPDDFATYYCQESHSASLTFGGGTKVEVK
B17: anti-IL-23p19 Fab/scFv cluster 29 (Fab, V domains shown)
VH: EVQLLESGGGLVQPGGSLRLSCAASGFTFSAYGMDWVRQAPGKGLEWVSSISPSGGQTKYADSVKGRFTISRDNSKNTLYLQMNSLRAEDTAVYYCAKDLGGGYYYYYGMDVWGQGTLVTVSS
VL: QYELTQPASVSGSPGQSITISCTGTSSDVGGYNYVSWYQQHPGKAPKLMIYEVSNRPSGVSNRFSGSKSGNTASLTISGLQAEDEADYYCSSYTSSSTLFYVFGTGTKVTVL
B18: anti-IL-23p19 Fab/scFv cluster 33 (Fab, V domains shown)
VH: EVQLLESGGGLVQPGGSLRLSCAASGFTFSTYWMEWVRQAPGKGLEWVSSIVSSGGPTMYADSVKGRFTISRDNSKNTFYLQMNSLRAEDTAVYYCARAREISIFGVVKDLDIWGQGTMVTVSS
VL: DIQMTQSPGTLSVSPGERATLSCRASQSVSNKLAWYQQKPGQAPRLLIYGASTRATGIPARFSGSGSGTEFTLTITSLQSEDFAVYYCQQRINWPLTFGGGTKVEIK
B19: anti-IL-23p19 Fab/scFv cluster 36 (Fab, V domains shown)
VH: EVQLLESGGGLVQPGGSLRLSCAASGFTFSHYVMGWVRQAPGKGLEWVSYISPSGGWTWYADFVKGRFTISRDNSKNTLYLQMNSLRAEDTAVYYCARVHDAFDIWGQGTMVTVSS
VL: DIQMTQSPSSVSASVGDRVTITCRASQGVSTWLAWYQQKPGKAPKLLIYAASSLQSGVPSRFSGSGSGTDFTLTISSLQPEDFATYYCLQAYNFPLTFGGGTEVEIK
B20: anti-IL-23p19 Fab/scFv cluster 43 (Fab, V domains shown)
VH: EVQLLESGGGLVQPGGSLRLSCAASGFTFSWYGMVWVRQAPGKGLEWVSSISPSGGSTDYADSVKGRFTISRDNSKNTLYLQMNSLRAEDTAVYYCARVGSSWYLDVWGQGTTVTVSS
VL: DIQMTQSPLSLPVTPGEPASISCRSSQSLLHSNGYNYLDWFLQKPGQSPQLLIYLGSHRASGVPDRFSGSGSGTDFTLKISRVEAEDVGVYYCMQALQSRYTFGQGTKLEIK
B21: anti-IL-23p19 Fab/scFv cluster 101 (Fab, V domains shown)
V domain 1: QSELTQPRSVSGSPGQSVTISCTGTSSDVGGYNYVSWYRQDPGKAPKLIIYEVSKRPSGVSNRFSGSKSGNTASLTISGLHIEDEGLYYCSSFRYSRSLDYVFGTGTQVTVL
V domain 2: EVQLLESGGGLVQPGGSLRLSCAASGFTFSDYLMTWVRQAPGKGLEWVSGIWPSGGFTFYADSVKGRFTISRDNSKNTLYLQMNSLRAEDTAVYYCARAKGGDYGDPSPFDYWGQGTLVTVSS
B22: anti-IL-23p19 Fab/scFv cluster 114 (Fab, V domains shown)
VH: EVQLLESGGGLVQPGGSLRLSCAASGFTFSWYVMMWVRQAPGKGLEWVSGISSSGGGTQYADSVKGRFTISRDNSKNTLYLQMNSLRAEDTAVYYCARGGYYYDVPYYWGQGTLVTVSS
VL: DIQMTQSPSSLSASVGDRVTITCRASQNINFYLSWFQQKPGKAPKLLIHSVNNLLGPVPSRFSGSGSGTDFTLTIVSLQPEDFATYYCQQGYRPPYTFGQGTKLEIK

The chains behind the UniProt entries cited, without tags or fusion partners. Where a name states a change or a piece, a line headed by the entry shows the natural chain unless it says otherwise.
UniProt Q9NPF7: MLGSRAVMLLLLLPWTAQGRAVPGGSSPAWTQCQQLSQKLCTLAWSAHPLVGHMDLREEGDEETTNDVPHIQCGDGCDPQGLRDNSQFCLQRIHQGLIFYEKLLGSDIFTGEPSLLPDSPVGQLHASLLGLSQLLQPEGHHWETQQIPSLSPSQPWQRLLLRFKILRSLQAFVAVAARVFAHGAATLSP

biological target: human p19 subunit of IL-23 (human) (UniProt Q9NPF7); assay: phage display screening

binding, binds:
B1
B2
B3
B4
B5
B6
B7
B8
B9
B10
B11
B12
B13
B14
B15
B16
B17
B18
B19
B20
B21
B22

— patent EP2392597B1
